# According to patent US6900019B1, “In-situ cell extraction and assay method” (Amersham Biosciences UK Limited, priority 1997, dated 2005):
# Entries after “also recorded” stand apart in the source; their conditions may differ. At least one compound was matched to its structure with a doubt left.
# Tests used:
# [1] = tested on: Chinese Hamster Ovary cells; test: Forskolin-stimulated intracellular cAMP, one-pot extraction SPA radioimmunoassay; assay type: cell-based; settings: CHO cells, 1, 5 or 10 μM forskolin, 20 minutes
# [2] = tested on: Chinese hamster ovary (CHO) cells; test: "Total" cellular cAMP from forskolin-stimulated CHO cells; assay type: cell-based; settings: forskolin 1 μM-100 μM, 20 minutes at room temperature
# Description: Chinese hamster ovary (CHO) cells were cultured in HAM's media containing 10% (v/v) foetal calf serum (FCS). For cAMP assays, cells were seeded into clear-bottomed 96-well tissue-culture plates with opaque walls (tissue-culture grade; see materials) in HAM's media, (see experiment 5) at 40 μl/well (between 10^4 and 10^6 cells/well). Cells were cultured overnight at 37° C. in a 95% air/5% CO2 atmosphere. The next day, sequestration and lysis buffers (2.5% alpha-cyclodextrin, 1% and 10% DTAB in assay buffer) were prepared. Antisera (at 1/11000 dilution), tracer (10000-20000 cpm) and SPA beads (20 mg/ml) were reconstituted with assay buffer containing 2.5% (w/v) alpha-cyclodextrin. […]
# DTAB (100 μl, 1% w/v in assay buffer) was added to the non-specific binding wells. […] Following incubation, the plate was transferred directly to a TopCount™ scintillation counter and radioactivity detected. Non-specific binding was determined in the absence of specific rabbit antisera. Cyclic AMP levels were determined using log/linear analysis with reference to the standard curve. […]
# Chinese hamster ovary cells were seeded at a density of 100,000 cells per well and cultured overnight to confluence in Viewplates as described under the methods section. […] The cell culture supernatant was not removed before the cell lysis step. cAMP levels were measured with the SPA radioimmunoassay procedure.
smiles,measurement,setting,value
"C=C[C@@]1(C)CC(=O)[C@]2(O)[C@@]3(C)[C@@H](O)CCC(C)(C)[C@@H]3[C@H](O)[C@H](OC(C)=O)[C@@]2(C)O1 [forskolin, Forskolin]",intracellular cAMP levels,[1],augmented; also recorded: significantly increased
same,total cellular cAMP levels,[2],rose significantly
